What all share (test): proximity labelling
In experiment [1] the target is T1, IRS4 (WT)-PafA (UniProt O14654).
T1 sequence: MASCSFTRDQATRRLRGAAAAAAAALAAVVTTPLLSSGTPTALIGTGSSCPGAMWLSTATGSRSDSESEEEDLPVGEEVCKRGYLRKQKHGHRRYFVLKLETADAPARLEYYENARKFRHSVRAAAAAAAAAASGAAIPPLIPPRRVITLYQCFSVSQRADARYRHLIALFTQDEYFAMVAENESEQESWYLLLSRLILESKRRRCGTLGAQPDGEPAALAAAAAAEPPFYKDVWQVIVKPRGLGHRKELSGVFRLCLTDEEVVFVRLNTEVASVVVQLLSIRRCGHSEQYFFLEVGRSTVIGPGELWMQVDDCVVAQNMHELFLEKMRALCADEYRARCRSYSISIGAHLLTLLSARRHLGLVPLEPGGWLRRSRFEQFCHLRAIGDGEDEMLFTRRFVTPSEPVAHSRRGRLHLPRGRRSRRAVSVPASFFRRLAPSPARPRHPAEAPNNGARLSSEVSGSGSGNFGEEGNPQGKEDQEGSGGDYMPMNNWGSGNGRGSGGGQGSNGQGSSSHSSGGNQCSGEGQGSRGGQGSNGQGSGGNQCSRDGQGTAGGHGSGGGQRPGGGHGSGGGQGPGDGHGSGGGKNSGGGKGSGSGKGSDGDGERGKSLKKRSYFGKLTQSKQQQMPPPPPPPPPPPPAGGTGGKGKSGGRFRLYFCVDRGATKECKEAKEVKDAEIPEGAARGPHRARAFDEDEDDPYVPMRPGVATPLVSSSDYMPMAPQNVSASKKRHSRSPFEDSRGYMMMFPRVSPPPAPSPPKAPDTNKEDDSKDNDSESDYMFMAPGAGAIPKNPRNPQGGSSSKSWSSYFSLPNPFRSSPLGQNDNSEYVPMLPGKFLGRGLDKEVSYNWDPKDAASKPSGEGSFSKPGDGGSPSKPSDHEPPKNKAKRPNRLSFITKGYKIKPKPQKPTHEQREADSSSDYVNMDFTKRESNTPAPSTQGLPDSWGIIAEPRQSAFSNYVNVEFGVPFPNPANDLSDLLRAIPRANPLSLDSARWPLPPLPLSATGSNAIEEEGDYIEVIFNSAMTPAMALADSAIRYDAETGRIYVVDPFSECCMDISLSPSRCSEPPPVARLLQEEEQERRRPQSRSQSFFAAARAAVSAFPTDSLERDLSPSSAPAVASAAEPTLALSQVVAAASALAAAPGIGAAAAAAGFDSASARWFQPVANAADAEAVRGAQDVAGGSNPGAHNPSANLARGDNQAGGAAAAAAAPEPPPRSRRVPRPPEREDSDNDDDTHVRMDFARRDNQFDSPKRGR

Chains of the proteins cited; added tags and fusions are not shown. Residues count along the entry.
UniProt P55854, residues 1-92: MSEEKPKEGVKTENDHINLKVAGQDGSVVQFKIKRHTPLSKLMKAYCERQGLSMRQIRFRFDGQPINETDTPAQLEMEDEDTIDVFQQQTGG
UniProt O00459: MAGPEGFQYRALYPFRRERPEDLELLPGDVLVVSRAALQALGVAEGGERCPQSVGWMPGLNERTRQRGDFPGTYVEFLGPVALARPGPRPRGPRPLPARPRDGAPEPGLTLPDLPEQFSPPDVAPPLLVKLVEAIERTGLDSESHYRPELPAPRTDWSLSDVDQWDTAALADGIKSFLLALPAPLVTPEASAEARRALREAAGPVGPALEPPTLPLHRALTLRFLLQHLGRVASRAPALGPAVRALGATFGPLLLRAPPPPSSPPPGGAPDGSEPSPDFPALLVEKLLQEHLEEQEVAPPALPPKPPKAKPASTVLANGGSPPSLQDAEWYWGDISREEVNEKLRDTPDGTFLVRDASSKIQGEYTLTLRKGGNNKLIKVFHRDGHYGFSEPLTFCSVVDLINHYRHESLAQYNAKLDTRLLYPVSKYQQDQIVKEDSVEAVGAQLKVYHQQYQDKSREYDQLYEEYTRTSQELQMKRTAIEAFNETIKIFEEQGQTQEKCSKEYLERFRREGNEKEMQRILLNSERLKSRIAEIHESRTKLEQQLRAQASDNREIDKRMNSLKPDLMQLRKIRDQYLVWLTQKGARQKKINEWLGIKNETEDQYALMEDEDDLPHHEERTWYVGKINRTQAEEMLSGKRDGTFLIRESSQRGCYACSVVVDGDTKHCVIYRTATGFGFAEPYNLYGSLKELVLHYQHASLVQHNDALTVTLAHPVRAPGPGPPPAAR
UniProt A2AJT9: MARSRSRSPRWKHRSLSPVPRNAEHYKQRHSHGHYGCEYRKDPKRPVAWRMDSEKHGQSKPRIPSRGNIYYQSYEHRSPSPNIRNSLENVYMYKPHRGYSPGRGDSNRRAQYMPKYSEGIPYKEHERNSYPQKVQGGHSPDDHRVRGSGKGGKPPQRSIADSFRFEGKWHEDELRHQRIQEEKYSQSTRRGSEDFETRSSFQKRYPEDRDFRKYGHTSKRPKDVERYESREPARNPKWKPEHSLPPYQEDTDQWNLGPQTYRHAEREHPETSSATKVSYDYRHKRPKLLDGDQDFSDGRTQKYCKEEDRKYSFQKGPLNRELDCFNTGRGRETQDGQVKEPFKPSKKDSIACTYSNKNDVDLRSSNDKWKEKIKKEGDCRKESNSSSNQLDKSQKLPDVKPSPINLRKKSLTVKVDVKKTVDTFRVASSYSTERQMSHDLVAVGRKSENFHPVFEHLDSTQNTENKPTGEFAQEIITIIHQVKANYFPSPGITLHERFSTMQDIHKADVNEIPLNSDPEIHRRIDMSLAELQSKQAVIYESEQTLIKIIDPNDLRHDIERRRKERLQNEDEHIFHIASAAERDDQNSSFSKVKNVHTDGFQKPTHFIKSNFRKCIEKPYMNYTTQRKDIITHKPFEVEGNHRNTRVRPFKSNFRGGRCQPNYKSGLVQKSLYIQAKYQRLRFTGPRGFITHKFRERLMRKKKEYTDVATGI
UniProt O75348: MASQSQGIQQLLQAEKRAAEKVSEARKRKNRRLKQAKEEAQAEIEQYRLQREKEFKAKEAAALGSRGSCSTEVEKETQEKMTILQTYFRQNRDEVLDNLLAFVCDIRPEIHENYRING

The target of experiment [2] is T2, IRS4 (Y847F)-PafA (UniProt O14654).
T2 sequence: T1 sequence with Y847F

Experiment [3] addresses T3, IRS4 (Y779F)-PafA (UniProt O14654).
T3 sequence: T1 sequence with Y779F

Experiment [4] concerns the target T4, IRS4 (Y921F)-PafA (UniProt O14654).
T4 sequence: T1 sequence with Y921F

Residue numbers refer to the chain shown, from its start. No constants are given. Whether binding was seen depends on the method and setting. Binding seen in cells or lysates may run through a third protein. Here binding means that the protein was enriched with, or labelled near, the bait; the list need not be complete.

Regarding SUMO3 (from UniProt P55854 1-92), the binding entry in experiment [1] was “binds”.
On the same count and under the same terms, to “PIK3R2/p85β, the regulatory subunit of PI-3K (from UniProt O00459 1-728)” belongs “binds”; to CXorf23 (from UniProt A2AJT9 1-711), “binds”.
On the same count and under the same terms, then ATP6V1G1 (from UniProt O75348 1-118), with “binds”.

B1: EBNA1 Binding Protein 2 (EBNA1BP2) (protein, UniProt Q99848 1-306)
chain: MDTPPLSDSESESDESLVTDRELQDAFSRGLLKPGLNVVLEGPKKAVNDVNGLKQCLAEFKRDLEWVERLDVTLGPVPEIGGSEAPAPQNKDQKAVDPEDDFQREMSFYRQAQAAVLAVLPRLHQLKVPTKRPTDYFAEMAKSDLQMQKIRQKLQTKQAAMERSEKAKQLRALRKYGKKVQTEVLQKRQQEKAHMMNAIKKYQKGFSDKLDFLEGDQKPLAQRKKAGAKGQQMRKGPSAKRRYKNQKFGFGGKKKGSKWNTRESYDDVSSFRAKTAHGRGLKRPGKKGSNKRPGKRTREKMKNRTH
B1: the binding entry in experiment [2], in experiment [1], in experiment [3] and in experiment [4] was “binds” throughout.

B2: C18orf25 (protein, UniProt Q96B23 1-404)
chain: MKMEEAVGKVEELIESEAPPKASEQETAKEEDGSVELESQVQKDGVADSTVISSMPCLLMELRRDSSESQLASTESDKPTTGRVYESDSSNHCMLSPSSSGHLADSDTLSSAEENEPSQAETAVEGDPSGVSGATVGRKSRRSRSESETSTMAAKKNRQSSDKQNGRVAKVKGHRSQKHKERIRLLRQKREAAARKKYNLLQDSSTSDSDLTCDSSTSSSDDDEEVSGSSKTITAEIPDGPPVVAHYDMSDTNSDPEVVNVDNLLAAAVVQEHSNSVGGQDTGATWRTSGLLEELNAEAGHLDPGFLASDKTSAGNAPLNEEINIASSDSEVEIVGVQEHARCVHPRGGVIQSVSSWKHGSGTQYVSTRQTQSWTAVTPQQTWASPAEVVDLTLDEDSRRKYLL
With B2, in experiment [1], the binding result is on record as “binds”.

For the origin of these results see publication doi:10.1101/2020.07.20.211417.
